No constants are given. Whether binding was seen depends on the method and setting. Some binding calls cover weakened binding; strength is not graded here.
What was measured:
[1] = molecular target: p25 expressed in HEK293T cells from a transfected eukaryotic expression plasmid (Mus musculus (Mouse)) (UniProt P61809); assay: immunohistochemical staining of transfected HEK293T cells (FIG. 2C)
[2] = molecular target: p25 expressed in HEK293T cells from a transfected eukaryotic expression plasmid (Mus musculus (Mouse)) (UniProt P61809); assay: immunostaining of transfected cells

Protein sequences, listed by entry. Tags and fused reporters are not part of them. Lines headed by an entry give the natural chain unless they say otherwise; changes in a name come on top.
UniProt P61809: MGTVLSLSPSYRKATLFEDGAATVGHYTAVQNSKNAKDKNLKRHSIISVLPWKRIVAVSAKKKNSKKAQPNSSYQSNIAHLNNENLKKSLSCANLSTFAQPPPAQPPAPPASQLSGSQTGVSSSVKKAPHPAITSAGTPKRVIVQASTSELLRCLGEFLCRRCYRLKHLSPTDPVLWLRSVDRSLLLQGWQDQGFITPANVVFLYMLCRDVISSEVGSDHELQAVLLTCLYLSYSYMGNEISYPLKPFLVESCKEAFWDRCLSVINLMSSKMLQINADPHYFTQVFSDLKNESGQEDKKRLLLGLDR

B1: anti-p25 monoclonal antibody 1C4 (antibody, V domains shown)
VH: QIQLEESGPELRKPGETVRISCKASGYTFTTAGMQWVQKMPGTGLKWIGWINTHSGVPKYAGEFTGRFDFSLETSASTAYLQIVNLKNEDTATYFCARYGKFGEMDYWGQGTSVTVSS
VL: IVMTQSPASLAVSLGQRATISCRSSETVDSDGNSFMHWYQQKPGQSPKLLLYLASTLESGVPARFSGSGSRTDFTLTIDPVEADDAATYYCHQNNEDPTFGGGTKLEIKR
In the case of B1, the binding [1] is reported as “binds” and the binding [2] is reported as “binds”.
